Assay results taken from patent US7572809B2, “Isoquinoline aminopyrazole derivatives” (Hoffmann-La Roche Inc., priority 2005, dated 2009).
pIC50: −log10 of the molar value. Some results were stated once for a whole list of compounds, not compound by compound. Some compounds share one range, which may span the group rather than tell each member.

What follows are compounds tested on HCT 116 cells (assay: Viability assay in HCT 116 cells (CellTiter-Glo)). Details: HCT 116 human colon carcinoma cells, 5 days incubation.
Assay type: cell-based
Procedure: Viability Assay in HCT 116 Cells
A viability assay was performed using the CellTiter-Glo® Luminescent Cell Viability Assay (see Promega Corporation's Technical Bulletin No. 288, pp. 1-11 [revised February, 2004] which is hereby incorporated by reference in its entirety). This assay is a homogeneous method of determining the number of viable cells in culture based on quantitation of the ATP present, an indicator of metabolically active cells. The assay is designed for use with multiwell formats, making it ideal for automated high-throughput screening (HTS), cell proliferation and cytotoxicity assays. The homogeneous assay procedure involves adding a single reagent (containing luciferase, luciferan substrate, and buffer) directly to cells cultured in serum-supplemented medium. Cell washing, removal of medium and multiple pipetting steps are not required. The system detects as few as 15 cells/well in a 384-well format in 10 minutes after adding reagent and mixing.
The homogeneous “add-mix-measure” format results in cell lysis and generation of a luminescent signal proportional to the amount of ATP present. The amount of ATP is directly proportional to the number of cells present in culture. The above-referenced assay generates a “glow-type” luminescent signal, produced by the luciferase reaction, which has a half-life generally greater than five hours, depending on cell type and medium used. The extended half-life eliminates the need to use reagent injectors and provides flexibility for continuous or batch mode processing of multiple plates. The unique homogeneous format avoids errors that may be introduced by other ATP measurement methods that require multiple steps.
HCT 116 cells (human colon carcinoma, ATCC-No. CCl-247) were cultivated in RPMI 1640 medium with GlutaMAX™ I (cell culture media that contains L-Alanyl-L-Glutamine [a stabilized form/source of L-Glutamine] from Invitrogen, Cat-No. 61870-010), 5% Fetal Calf Serum (FCS, Sigma Cat-No. F4135 (FBS)); 100 Units/ml penicillin/100 μg/ml streptomycin (=Pen/Strep from Invitrogen Cat. No. 15140). For the assay the cells were seeded in 384 well plates, 1000 cells per well, in the same medium. The next day the test compounds were added in various concentrations ranging from 30 μM to 0.0015 μM (10 concentrations, 1:3 diluted). After 5 days the viability assay was performed according to the instructions of the manufacturer. In brief: the cell-plate was equilibrated to room temperature for approximately 30 minutes and then the CellTiter-Glo™ reagent (which contains luciferase, luciferan substrate, and buffer) was added. The contents were carefully mixed for 15 minutes to induce cell lysis. After 45 minutes the luminescent signal was measured in Victor 2, (scanning multiwell spectrophotometer, Wallac).
1st. Day: • Medium: RPMI 1640 with GlutaMAX™ I (Invitrogen, Cat-No. 61870), 5% FCS (Sigma Cat.-No. F4135), Pen/Strep (Invitrogen, Cat No. 15140). • HCT116 (ATCC-No. CCl-247): 1000 cells in 60 μl per well of 384 well plate (Greiner 781098, μClear-plate white) • After seeding incubate plates 24 h at 37° C., 5% CO2 2nd. Day: Induction (Treatment with Compounds, 10 Concentrations):
In order to achieve a final concentration of 30 μM as highest concentration 3.5 μl of 10 mM compound stock solution were added directly to 163 μl media. Then step e) of the dilution procedure described below, was followed.
In order to achieve the second highest to the lowest concentrations, a serial dilution with dilution steps of 1:3 was followed according to the procedure (a-e) as described here below: a) for the second highest concentration add 10 μl of 10 mM stock solution of compound to 20 μl dimethylsulfoxide (DMSO) b) dilute 8×1:3 (always 10 μl to 20 μl DMSO) in this DMSO dilution row (results in 9 wells with concentrations from 3333.3 μM to 0.51 μM) c) dilute each concentration 1:47.6 (3.5 μl compound dilution to 163 μl media) […]

**Q.** `Cc1cc(Nc2cc3ccccc3c(Oc3ccc(F)cc3)n2)n[nH]1` [Example 13, [1-(4-Fluoro-phenoxy)-isoquinolin-3-yl]-(5-methyl-1H-pyrazol-3-yl)-amine] was tested. Which pIC50 did it give?
**A.** 4.82 to 8.00

**Q.** How did the pIC50 turn out when `COc1cccc(Oc2nc(Nc3cc(C)[nH]n3)cc3ccccc23)c1` [Example 20, [1-(3-Methoxy-phenoxy)-isoquinolin-3-yl]-(5-methyl-1H-pyrazol-3-yl)-amine] was run?
**A.** 4.82 to 8.00

**Q.** With `Cc1cc(Nc2cc3ccccc3c(Oc3ccccc3Cl)n2)n[nH]1` [Example 23, [1-(2-Chloro-phenoxy)-isoquinolin-3-yl]-(5-methyl-1H-pyrazol-3-yl)-amine] as the compound, how does the pIC50 read?
**A.** 4.82 to 8.00

**Q.** How did the pIC50 turn out when `COc1ccc2c(Oc3ccc(F)cc3)nc(Nc3cc(C)[nH]n3)cc2c1` [Example 37, [1-(4-Fluoro-phenoxy)-6-methoxy-isoquinolin-3-yl]-(5-methyl-1H-pyrazol-3-yl)-amine] was run?
**A.** 4.82 to 8.00

**Q.** `COc1ccc2c(Oc3ccc(Cl)cc3)nc(Nc3cc(C)[nH]n3)cc2c1` [Example 40, [1-(4-Chloro-phenoxy)-6-methoxy-isoquinolin-3-yl]-(5-methyl-1H-pyrazol-3-yl)-amine] was tested. Which pIC50 did it give?
**A.** 4.82 to 8.00

**Q.** `COc1cccc2c(Oc3ccc(Cl)cc3)nc(Nc3cc(C)[nH]n3)cc12` [Example 69, [1-(4-Chloro-phenoxy)-5-methoxy-isoquinolin-3-yl]-(5-methyl-1H-pyrazol-3-yl)-amine] was tested. Which pIC50 did it give?
**A.** 4.82 to 8.00

**Q.** How did the pIC50 turn out when `COc1ccc(Oc2nc(Nc3cc(C)[nH]n3)cc3ccc(OC)cc23)cc1` [Example 72, [7-Methoxy-1-(4methoxy-phenoxy)-isoquinolin-3-yl]-(5-methyl-1H-pyrazol-3-yl)-amine] was run?
**A.** 4.82 to 8.00

**Q.** With `COc1cc2cc(Nc3cc(C)[nH]n3)nc(OC(C)C)c2cc1OC` [Example 84, (1-Isopropoxy-6,7-dimethoxy-isoquinolin-3-yl)-(5-methyl-1H-pyrazol-3-yl)-amine] as the compound, how does the pIC50 read?
**A.** 4.82 to 8.00

**Q.** With `COc1cc2cc(Nc3cc(C)[nH]n3)nc(OC)c2cc1OC` [Example 85, (1-Methoxy-6,7-dimethoxy-isoquinolin-3-yl)-(5-methyl-1H-pyrazol-3-yl)-amine] as the compound, how does the pIC50 read?
**A.** 4.82 to 8.00

**Q.** With `COc1cc2cc(Nc3cc(C)[nH]n3)nc(Oc3ccc(F)cc3)c2cc1OC` [Example 87, [1-(4-Fluoro-phenoxy)-6,7-dimethoxy-isoquinolin-3-yl]-(5-methyl-1H-pyrazol-3-yl)-amine] as the compound, how does the pIC50 read?
**A.** 4.82 to 8.00

**Q.** `Cc1cc(Nc2cc3ccccc3c(-c3ccc(F)cc3)n2)n[nH]1` [Example 132, [1-(4-Fluoro-phenyl)-isoquinolin-3-yl]-(5-methyl-1H-pyrazol-3-yl)-amine] was tested. Which pIC50 did it give?
**A.** 4.82 to 8.00

**Q.** `COc1ccc(-c2nc(Nc3cc(C)[nH]n3)cc3ccccc23)cc1` [Example 137, [1-(4-Methoxy-phenyl)-isoquinolin-3-yl]-(5-methyl-1H-pyrazol-3-yl)-amine] was tested. Which pIC50 did it give?
**A.** 4.82 to 8.00

**Q.** How did the pIC50 turn out when `Cc1cc(Nc2cc3ccccc3c(-c3cccc(F)c3)n2)n[nH]1` [Example 142, [1-(3-Fluoro-phenyl)-isoquinolin-3-yl]-(5-methyl-1H-pyrazol-3-yl)-amine] was run?
**A.** 4.82 to 8.00

**Q.** How did the pIC50 turn out when `COc1cccc(-c2nc(Nc3cc(C)[nH]n3)cc3ccccc23)c1` [Example 144, [1-(3-Methoxy-phenyl)-isoquinolin-3-yl]-(5-methyl-1H-pyrazol-3-yl)-amine] was run?
**A.** 4.82 to 8.00

**Q.** `Cc1cc(Nc2cc3ccccc3c(-c3ccsc3)n2)n[nH]1` [Example 158, (5-Methyl-1H-pyrazol-3-yl)-(1-thiophen-3-yl-isoquinolin-3-yl)-amine] was tested. Which pIC50 did it give?
**A.** 4.82 to 8.00

**Q.** How did the pIC50 turn out when `COc1ccc2c(-c3ccccc3)nc(Nc3cc(C)[nH]n3)cc2c1` [Example 165, (6-Methoxy-1-phenyl-isoquinolin-3-yl)-(5-methyl-1H-pyrazol-3-yl)-amine] was run?
**A.** 4.82 to 8.00

**Q.** How did the pIC50 turn out when `COc1ccc2c(-c3ccc(F)cc3)nc(Nc3cc(C)[nH]n3)cc2c1` [Example 166, [1-(4-Fluoro-phenyl)-6-methoxy-isoquinolin-3-yl]-(5-methyl-1H-pyrazol-3-yl)-amine] was run?
**A.** 4.82 to 8.00

**Q.** `COc1ccc2c(-c3cccc(F)c3)nc(Nc3cc(C)[nH]n3)cc2c1` [Example 173, [1-(3-Fluoro-phenyl)-6-methoxy-isoquinolin-3-yl]-(5-methyl-1H-pyrazol-3-yl)-amine] was tested. Which pIC50 did it give?
**A.** 4.82 to 8.00

**Q.** With `COc1ccc2c(-c3ccccc3F)nc(Nc3cc(C)[nH]n3)cc2c1` [Example 180, [1-(2-Fluoro-phenyl)-6-methoxy-isoquinolin-3-yl]-(5-methyl-1H-pyrazol-3-yl)-amine] as the compound, how does the pIC50 read?
**A.** 4.82 to 8.00

**Q.** With `COc1ccc2c(-c3ccc(F)cc3F)nc(Nc3cc(C)[nH]n3)cc2c1` [Example 185, [1-(2,4-Difluoro-phenyl)-6-methoxy-isoquinolin-3-yl]-(5-methyl-1H-pyrazol-3-yl)-amine] as the compound, how does the pIC50 read?
**A.** 4.82 to 8.00

**Q.** `COc1ccc2c(-c3ccc(OC)c(OC)c3)nc(Nc3cc(C)[nH]n3)cc2c1` [Example 187, [1-(3,4-Dimethoxy-phenyl)-6-methoxy-isoquinolin-3-yl]-(5-methyl-1H-pyrazol-3-yl)-amine] was tested. Which pIC50 did it give?
**A.** 4.82 to 8.00

**Q.** `COc1ccc2c(-c3ccc(NC(C)=O)cc3)nc(Nc3cc(C)[nH]n3)cc2c1` [Example 191, N-{4-[3-(5-Methyl-1H-pyrazol-3-ylamino)-6-methoxy-isoquinolin-1-yl]-phenyl}-acetamide] was tested. Which pIC50 did it give?
**A.** 4.82 to 8.00

**Q.** `COc1cccc2c(-c3cccc(C#N)c3)nc(Nc3cc(C)[nH]n3)cc12` [Example 201, 3-[3-(5-Methyl-1H-pyrazol-3-ylamino)-5-methoxy-isoquinolin-1-yl]-benzonitrile] was tested. Which pIC50 did it give?
**A.** 4.82 to 8.00

**Q.** How did the pIC50 turn out when `COc1ccc2cc(Nc3cc(C)[nH]n3)nc(-c3cccnc3)c2c1` [Example 204, (5-Methyl-1H-pyrazol-3-yl)-(1-pyridin-3-yl-7-methoxy-isoquinolin-3-yl)-amine] was run?
**A.** 4.82 to 8.00

The compounds below were run against T1, Aurora A kinase (Homo sapiens, UniProt O14965) (assay: IC50 determination for inhibitors of Aurora A kinase (ELISA, GST-Histone H3 substrate)). Details: mutant Aurora A kinase, 30 μM ATP, 40 minutes.
T1 sequence (O14965 1-403): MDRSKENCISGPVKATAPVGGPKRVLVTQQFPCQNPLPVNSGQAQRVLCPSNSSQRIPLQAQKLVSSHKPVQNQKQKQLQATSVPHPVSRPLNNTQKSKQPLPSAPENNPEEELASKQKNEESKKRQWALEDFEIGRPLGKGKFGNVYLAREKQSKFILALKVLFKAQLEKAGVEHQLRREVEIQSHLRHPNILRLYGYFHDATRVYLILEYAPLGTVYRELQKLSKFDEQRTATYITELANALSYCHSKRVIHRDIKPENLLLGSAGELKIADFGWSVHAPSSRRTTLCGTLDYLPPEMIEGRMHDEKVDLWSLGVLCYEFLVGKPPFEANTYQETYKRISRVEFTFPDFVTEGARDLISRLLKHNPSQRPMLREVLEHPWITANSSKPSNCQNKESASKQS
Assay type: biochemical
Procedure: IC50 Determination for Inhibitors of Aurora A Kinase
Aurora A is a Serine Threonine Kinase Involved in Spindle Assembly and Chromosome Segregation.
The assay is a typically ELISA-type assay where substrate (GST-Histone H3) is coupled to the assay-plate and is phosphorylated by the kinase. Phosphorylation is detected by a mouse anti-Phosphopeptid mAb and an HRP-labeled anti-mouse pAb. The assay is validated for IC50-determination.
Kinase activities were measured by Enzyme-Linked Immunosorbent Assay (ELISA): Maxisorp 384-well plates (Nunc) were coated with recombinant fusion protein comprising residues 1-15 of HistoneH3 fused to the N-terminus of Glutathione-S-Transferase. Plates were then blocked with a solution of 1 mg/mL I-block (Tropix cat# T2015—highly purified form of casein) in phosphate-buffered saline. Kinase reactions were carried out in the wells of the ELISA plate by combining an appropriate amount of mutant Aurora A kinase with test compound and 30 μM ATP. The reaction buffer was […] Kinase Buffer (Cell Signaling cat # 9802) supplemented with 1 μg/mL I-block. Reactions were stopped after 40 minutes by addition of 25 mM EDTA (ethylenediaminetetraacetic acid). After washing, substrate phosphorylation was detected by addition of anti-phospho-Histone H3 (Ser 10) 6G3 mAb (Cell Signaling cat #9706) and sheep anti-mouse pAb-HRP (Amersham cat# NA931V), followed by colorimetric development with TMB (3,3′,5,5′-tetramethylbenzidine from Kirkegaard & Perry Laboratories). After readout of the absorbance, IC50 values were calculated using a non-linear curve fit (XLfit® software (ID Business Solution Ltd., Guilford, Surrey, UK)).

**Q.** Which “IC50 Aurora A kinase inhibition” value does the source give for `COc1ccc2c(C(=O)N3CCN(C(C)=O)CC3)nc(Nc3cc(C)[nH]n3)cc2c1` [Example 319, 1-{4-[6-Methoxy-3-(5-methyl-1H-pyrazol-3-ylamino)-isoquinoline-1-carbonyl]-piperazin-1-yl}-ethanone] here?
**A.** 1 to 15000 nM
